According to the supplement of paper PMC4604168 (melanoma cell lines):
The other results are listed elsewhere or left out. Repeats are few or missing, and single values can be far off.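 Imaging used 1,536-well plates; nuclei positive for cleaved PARP by antibody were divided by total DNA-stained nuclei to yield the apoptosis fraction. Doses for screening kept most cells viable, and cell lines differ markedly in resting and induced cleaved-PARP levels.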

Key:
Test in all cases: cleaved PARP positive nuclei fraction relative to DMSO control; melanoma cells; higher = more apoptosis
Details in all cases: library dose: low library concentration; 72 h
501Mel = system: 501Mel
A101D = system: A101D
A2058 = system: A2058
A375 = system: A375
C32 = system: C32
CBRC008 = system: CBRC008 (line from a melanoma biopsy)
CBRC014 = system: CBRC014 (line from a melanoma biopsy)
CBRC016 = system: CBRC016 (line from a melanoma biopsy)
CBRC017 = system: CBRC017 (line from a melanoma biopsy)
CBRC034 = system: CBRC034 (line from a melanoma biopsy)
COLO792 = system: COLO792
COLO800 = system: COLO800
COLO829 = system: COLO829
G361 = system: G361
IPC-298 = system: IPC-298
IST-MEL1 = system: IST-MEL1
LB2518-MEL = system: LB2518-MEL
LOXIMVI = system: LOXIMVI
MEL-HO = system: MEL-HO

Compound	cleaved PARP positive nuclei fraction (501Mel) [%]	cleaved PARP positive nuclei fraction (A101D) [%]	cleaved PARP positive nuclei fraction (A2058) [%]	cleaved PARP positive nuclei fraction (A375) [%]	cleaved PARP positive nuclei fraction (C32) [%]	cleaved PARP positive nuclei fraction (CBRC008) [%]	cleaved PARP positive nuclei fraction (CBRC014) [%]	cleaved PARP positive nuclei fraction (CBRC016) [%]	cleaved PARP positive nuclei fraction (CBRC017) [%]	cleaved PARP positive nuclei fraction (CBRC034) [%]	cleaved PARP positive nuclei fraction (COLO792) [%]	cleaved PARP positive nuclei fraction (COLO800) [%]	cleaved PARP positive nuclei fraction (COLO829) [%]	cleaved PARP positive nuclei fraction (G361) [%]	cleaved PARP positive nuclei fraction (IPC-298) [%]	cleaved PARP positive nuclei fraction (IST-MEL1) [%]	cleaved PARP positive nuclei fraction (LB2518-MEL) [%]	cleaved PARP positive nuclei fraction (LOXIMVI) [%]	cleaved PARP positive nuclei fraction (MEL-HO) [%]
COc1ccc(C2=N[C@@H](c3ccc(Cl)cc3)[C@@H](c3ccc(Cl)cc3)N2C(=O)N2CCNC(=O)C2)c(OC(C)C)c1 [Nutlin-3] + C[C@@H](Oc1cc(-c2cnn(C3CCNCC3)c2)cnc1N)c1c(Cl)ccc(F)c1Cl [Crizotinib] (first compound 0.1 µM, partner dose 0.2 µM)	195	279	99.5	116	28.4	161	82.1	96.2	88.9	83.1	80.6	95.3	103	94.6	40.4	90.9	113	80.9	153
CC(=O)O[C@@]12CO[C@@H]1C[C@H](O)[C@@]1(C)C(=O)[C@H](O)C3=C(C)[C@@H](OC(=O)[C@H](O)[C@@H](NC(=O)OC(C)(C)C)c4ccccc4)C[C@@](O)([C@@H](OC(=O)c4ccccc4)[C@H]21)C3(C)C [Docetaxel] + Cn1nnc2c(C(N)=O)ncn2c1=O [temozolomide] (first compound 0.0001 µM, partner dose 2 µM)	271	90.3	4720	7220	96.9	232	223	137	254	193	529	351	219	671	445	285	510	201	213
CC1(C)CCC(c2ccc(Cl)cc2)=C(CN2CCN(c3ccc(C(=O)NS(=O)(=O)c4ccc(N[C@H](CCN5CCOCC5)CSc5ccccc5)c(S(=O)(=O)C(F)(F)F)c4)cc3)CC2)C1 + Cn1c(=O)n(-c2ccc(C(C)(C)C#N)cc2)c2c3cc(-c4cnc5ccccc5c4)ccc3ncc21 [NVP-BEZ235] (first compound 0.4 µM, partner dose 0.004 µM)	110	602	192	102	96.3	922	553	427	357	194	507	154	104	249	179	80.5	229	165	52.6
CCN(CC)CCNC(=O)c1c(C)[nH]c(/C=C2\C(=O)Nc3ccc(F)cc32)c1C [sunitinib] + COCC[n+]1c2c(n(Cc3cnccn3)c1C)C(=O)c1ccccc1C2=O [YM155] (first compound 0.4 µM, partner dose 0.0004 µM)	77.4	159	93.8	157	95.2	93.4	182	166	96.5	112	41.2	71.8	85.4	95.3	83.6	133	108	154	150
C[C@@H](N)c1ccc(C(=O)Nc2ccnc3[nH]ccc23)cc1 + CS(=O)(=O)CCNCc1ccc(-c2ccc3ncnc(Nc4ccc(OCc5cccc(F)c5)c(Cl)c4)c3c2)o1 [lapatinib] (first compound 0.4 µM, partner dose 0.8 µM)	80.6	225	55.6	126	80.7	322	81.3	210	142	145	148	65.6	135	150	343	59.2	96.5	78.7	225
CCN(CC)CCNC(=O)c1c(C)[nH]c(/C=C2\C(=O)Nc3ccc(F)cc32)c1C [sunitinib] + Cn1c(=O)n(-c2ccc(C(C)(C)C#N)cc2)c2c3cc(-c4cnc5ccccc5c4)ccc3ncc21 [NVP-BEZ235] (first compound 0.4 µM, partner dose 0.004 µM)	192	60.5	99.2	258	80.2	306	93.4	35.3	92	26.7	78.2	113	93.4	126	41.4	32.9	267	33.9	57.7
COc1ccc(C2=N[C@@H](c3ccc(Cl)cc3)[C@@H](c3ccc(Cl)cc3)N2C(=O)N2CCNC(=O)C2)c(OC(C)C)c1 [Nutlin-3] + COCC[n+]1c2c(n(Cc3cnccn3)c1C)C(=O)c1ccccc1C2=O [YM155] (first compound 0.1 µM, partner dose 0.0004 µM)	177	94	120	75.1	89.4	126	101	58.7	251	240	83.1	51.2	196	134	55.5	63	121	49.5	82.8
CN(c1ncccc1CNc1nc(Nc2ccc3c(c2)CC(=O)N3)ncc1C(F)(F)F)S(C)(=O)=O + Nc1nc(F)nc2c1ncn2[C@@H]1O[C@H](CO)[C@@H](O)[C@@H]1O [fludarabine] (first compound 0.08 µM, partner dose 0.2 µM)	8360	154	82.1	1410	622	122	95.4	58.6	82.9	30.4	136	52.2	86.1	182	45.1	136	92.7	34.4	64.1
C[C@]1(O)C[C@@H](c2nc(-c3ccc4ccc(-c5ccccc5)nc4c3)c3c(N)nccn32)C1 + Cn1c(=O)n(-c2ccc(C(C)(C)C#N)cc2)c2c3cc(-c4cnc5ccccc5c4)ccc3ncc21 [NVP-BEZ235] (first compound 0.4 µM, partner dose 0.004 µM)	220	124	57.3	738	167	170	130	95.5	116	151	103	183	189	128	290	70.6	239	67.6	114
CCN(CC)CCNC(=O)c1c(C)[nH]c(/C=C2\C(=O)Nc3ccc(F)cc32)c1C [sunitinib] + CNC(=O)c1cc(Oc2ccc(NC(=O)Nc3ccc(Cl)c(C(F)(F)F)c3)cc2)ccn1 [sorafenib] (first compound 0.4 µM, partner dose 0.4 µM)	167	110	50.8	68.6	85.1	33.5	76.2	57	107	70.8	80.2	91.5	70.9	116	96	456	101	73.8	79.4
CCN(CC)CCNC(=O)c1c(C)[nH]c(/C=C2\C(=O)Nc3ccc(F)cc32)c1C [sunitinib] + C[C@@H](Oc1cc(-c2cnn(C3CCNCC3)c2)cnc1N)c1c(Cl)ccc(F)c1Cl [Crizotinib] (first compound 0.4 µM, partner dose 0.2 µM)	190	116	101	122	68.7	36.8	102	168	66.9	90.7	107	118	129	135	84.3	256	103	39.4	54.1
COc1ccc(C2=N[C@@H](c3ccc(Cl)cc3)[C@@H](c3ccc(Cl)cc3)N2C(=O)N2CCNC(=O)C2)c(OC(C)C)c1 [Nutlin-3] + CS(=O)(=O)c1ccc(C(=O)Nc2ccc(Cl)c(-c3ccccn3)c2)c(Cl)c1 [vismodegib] (first compound 0.1 µM, partner dose 1 µM)	155	235	105	299	82	115	89.2	77	131	63	52.4	87.6	105	128	46.3	118	142	171	112
CCN(CC)CCNC(=O)c1c(C)[nH]c(/C=C2\C(=O)Nc3ccc(F)cc32)c1C [sunitinib] + Clc1ccc(Nc2nnc(Cc3ccncc3)c3ccccc23)cc1 [vatalanib] (first compound 0.4 µM, partner dose 2 µM)	425	60.5	114	257	92.6	233	74.7	35.8	85.5	53.7	158	112	97.3	110	45.2	142	111	120	86.3
C[C@]1(O)C[C@@H](c2nc(-c3ccc4ccc(-c5ccccc5)nc4c3)c3c(N)nccn32)C1 + CO[C@H]1C[C@@H]2CC[C@@H](C)[C@@](O)(O2)C(=O)C(=O)N2CCCC[C@H]2C(=O)O[C@H]([C@H](C)C[C@@H]2CC[C@@H](OCCO)[C@H](OC)C2)CC(=O)[C@H](C)/C=C(\C)[C@@H](O)[C@@H](OC)C(=O)[C@H](C)C[C@H](C)/C=C/C=C/C=C/1C [everolimus] (first compound 0.4 µM, partner dose 0.02 µM)	12900	60.9	196	913	151	172	118	90.9	185	102	224	245	169	279	231	117	183	209	28.7
CS(=O)(=O)c1ccc(C(=O)Nc2ccc(Cl)c(-c3ccccn3)c2)c(Cl)c1 [vismodegib] + CN1CCN(c2ccc3nc(-c4c(N)c5c(F)cccc5[nH]c4=O)[nH]c3c2)CC1 [Dovitinib] (first compound 1 µM, partner dose 0.1 µM)	102	84.2	278	131	77.4	61	106	401	117	79.7	27.5	83.1	73.9	226	118	31.1	115	118	157
C[C@]1(O)C[C@@H](c2nc(-c3ccc4ccc(-c5ccccc5)nc4c3)c3c(N)nccn32)C1 + Cn1nnc2c(C(N)=O)ncn2c1=O [temozolomide] (first compound 0.4 µM, partner dose 2 µM)	105	62	126	367	321	54.2	219	34.1	124	37.2	107	78.3	131	168	93.9	131	222	161	29.2

Full records as entered above. Order of values: cleaved PARP positive nuclei fraction (501Mel) [%] | cleaved PARP positive nuclei fraction (A101D) [%] | cleaved PARP positive nuclei fraction (A2058) [%] | cleaved PARP positive nuclei fraction (A375) [%] | cleaved PARP positive nuclei fraction (C32) [%] | cleaved PARP positive nuclei fraction (CBRC008) [%] | cleaved PARP positive nuclei fraction (CBRC014) [%] | cleaved PARP positive nuclei fraction (CBRC016) [%] | cleaved PARP positive nuclei fraction (CBRC017) [%] | cleaved PARP positive nuclei fraction (CBRC034) [%] | cleaved PARP positive nuclei fraction (COLO792) [%] | cleaved PARP positive nuclei fraction (COLO800) [%] | cleaved PARP positive nuclei fraction (COLO829) [%] | cleaved PARP positive nuclei fraction (G361) [%] | cleaved PARP positive nuclei fraction (IPC-298) [%] | cleaved PARP positive nuclei fraction (IST-MEL1) [%] | cleaved PARP positive nuclei fraction (LB2518-MEL) [%] | cleaved PARP positive nuclei fraction (LOXIMVI) [%] | cleaved PARP positive nuclei fraction (MEL-HO) [%]
COc1ccc(C2=N[C@@H](c3ccc(Cl)cc3)[C@@H](c3ccc(Cl)cc3)N2C(=O)N2CCNC(=O)C2)c(OC(C)C)c1 [Nutlin-3] + C[C@@H](Oc1cc(-c2cnn(C3CCNCC3)c2)cnc1N)c1c(Cl)ccc(F)c1Cl [Crizotinib] (first compound 0.1 µM, partner dose 0.2 µM) is entered as 195 | 279 | 99.5 | 116 | 28.4 | 161 | 82.1 | 96.2 | 88.9 | 83.1 | 80.6 | 95.3 | 103 | 94.6 | 40.4 | 90.9 | 113 | 80.9 | 153
C[C@]1(O)C[C@@H](c2nc(-c3ccc4ccc(-c5ccccc5)nc4c3)c3c(N)nccn32)C1 + Cn1c(=O)n(-c2ccc(C(C)(C)C#N)cc2)c2c3cc(-c4cnc5ccccc5c4)ccc3ncc21 [NVP-BEZ235] (first compound 0.4 µM, partner dose 0.004 µM) is entered as 220 | 124 | 57.3 | 738 | 167 | 170 | 130 | 95.5 | 116 | 151 | 103 | 183 | 189 | 128 | 290 | 70.6 | 239 | 67.6 | 114
